Assay results

Data taken from PubChem BioAssay AID1963991, deposited by NCATS (2024).

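Viability of UOK109 TFE3-fusion renal carcinoma cells after 48 h of compound exposure, read as ATP luminescence with CellTiter-Glo. Each compound was run as a concentration series, and the potency comes from that titration. The number is the fitted AC50 for loss of viability; a lower value means a more potent compound. All of these compounds are filed inconclusive. An active call needs an area-under-curve z-score below -0.8 in all three TFE3-fusion lines, and an inactive call needs flat class-4 curves in all three.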

Values are in nM. All entries here are filed as inconclusive. These entries are mostly ones the record files as inconclusive; other results of the assay are not listed here. A potency from a partial, single-point or poor curve is only a rough figure. Some entries filed as inconclusive have a full curve. Activity scores are not listed here.

compound,tested on / at,Potency (nM),curve as filed
N=C(N=C(N)N)N1CCOCC1,active = Z-AUC below -0.8 in all three lines,26350,"falling, single point"
Nc1ncn([C@@H]2O[C@H](CO)[C@@H](O)[C@@H]2O)c(=O)n1,active = Z-AUC below -0.8 in all three lines,9350,"falling, partial curve"
COc1cc(C(=O)NS(=O)(=O)c2ccccc2C)ccc1Cc1cn(C)c2ccc(NC(=O)OC3CCCC3)cc12,active = Z-AUC below -0.8 in all three lines,26350,"falling, single point"
Nc1ncnc2c1ncn2[C@@H]1O[C@H](CO)[C@@H](O)[C@@H]1O,active = Z-AUC below -0.8 in all three lines,833.3,"falling, full curve"
CNNCc1ccc(C(=O)NC(C)C)cc1,active = Z-AUC below -0.8 in all three lines,1663,-
c1ccc(-c2nn3c(c2-c2ccnc4cc(OCCN5CCOCC5)ccc24)CCC3)nc1,active = Z-AUC below -0.8 in all three lines,1049,-
CCOC(=O)[C@H](CCc1ccccc1)N[C@@H](C)C(=O)N1CCCC1C(=O)O (stereo partly drawn),active = Z-AUC below -0.8 in all three lines,23484,"falling, partial curve, poor fit"
CC(C)CNc1ccnc(NCc2csc(-c3ccccc3)n2)n1,active = Z-AUC below -0.8 in all three lines,18654,-
Nc1ccn([C@@H]2O[C@H](CO)[C@H](O)C2(F)F)c(=O)n1,active = Z-AUC below -0.8 in all three lines,2093,"falling, full curve"
Cn1cc(C=CC(=O)c2cccc(F)c2)cc1C=CC(=O)NO,active = Z-AUC below -0.8 in all three lines,18654,"falling, partial curve"
CCNC(=O)C[C@@H]1N=C(c2ccc(Cl)cc2)c2cc(OC)ccc2-n2c(C)nnc21,-,742.7,"falling, full curve"
Cc1cccc2c1CC[C@H](CN1CCC(c3c(Cl)cccc3Cl)CC1)C[C@@H]2O,active = Z-AUC below -0.8 in all three lines,37.22,-
CC(C)(C)c1cc(C=C(C#N)C#N)cc(Br)c1O,-,23484,"falling, single point"
COc1cc(C)c(Sc2cnc(NC(=O)c3ccc(CNC(C)C(C)(C)C)cc3)s2)cc1C(=O)N1CCN(C(C)=O)CC1 (stereo not drawn),active = Z-AUC below -0.8 in all three lines,16626,"falling, partial curve"
COc1cc(Cl)cn2c(-c3cccc(NC4CNC4)n3)cnc12,active = Z-AUC below -0.8 in all three lines,8333,"falling, full curve"
CC(C)(O)Cn1c(NC(=O)c2ccc(-c3cn[nH]c3)s2)nc2cc(CN3CCOCC3)ccc21,active = Z-AUC below -0.8 in all three lines,3722,"falling, full curve"
COc1cc2ncnc(Nc3cccc(Cl)c3)c2cc1OC,active = Z-AUC below -0.8 in all three lines,3722,"falling, partial curve, poor fit"
CCNC(=O)CC1N=C(c2ccc(Cl)cc2)c2cc(OC)ccc2-n2c(C)nnc21 (stereo not drawn),-,23484,"falling, partial curve"
O=c1ccn([C@@H]2O[C@H](CO)[C@H](O)[C@@H]2F)c(=O)[nH]1,active = Z-AUC below -0.8 in all three lines,16626,"falling, partial curve"
CCN(c1ccccc1)c1cc(NC)[n+](C)c(C)n1,active = Z-AUC below -0.8 in all three lines,14817,"falling, partial curve, poor fit"
O=C(O)C(=O)c1cn(Cc2ccccc2)c2ccc(-c3ccc(OC(F)(F)F)cc3)cc12,-,5899,-
C=C(C)[C@H]1Cc2c(ccc3c2O[C@@H]2COc4cc(OC)c(OC)cc4[C@@H]2C3=O)O1,-,5899,"falling, full curve"
CC(=CC(=O)Nc1ccccc1C(=O)O)c1ccc2ccccc2c1,active = Z-AUC below -0.8 in all three lines,13206,"falling, partial curve"
Cc1nc(N)sc1-c1ccnc(Nc2ccc(N3CCOCC3)cc2)n1,active = Z-AUC below -0.8 in all three lines,16626,"falling, partial curve"
C=C1C[C@H]2[C@H]3CCC(=O)[C@@]3(C)CC[C@@H]2[C@@]2(C)C=CC(=O)C=C12,-,1321,-
COc1ccc(S(=O)(=O)Nc2cc(-c3c(O)ccc4ccccc34)c(O)c3ccccc23)cc1,active = Z-AUC below -0.8 in all three lines,37221,"falling, single point"
C[C@@H](Oc1cc(-c2cnn(C3CCNCC3)c2)cnc1N)c1c(Cl)ccc(F)c1Cl,active = Z-AUC below -0.8 in all three lines,16626,"falling, partial curve"
CCN(CC)CCCC(C)Nc1ccnc2cc(Cl)ccc12 (stereo not drawn),active = Z-AUC below -0.8 in all three lines,3317,"falling, full curve"
N=C(N)c1ccc(OCCCCCOc2ccc(C(=N)N)cc2)cc1,active = Z-AUC below -0.8 in all three lines,1482,"falling, full curve"
Cn1c(=O)c(-c2c(Cl)cccc2Cl)cc2cnc(Nc3cccc(C(=O)O)c3)nc21,active = Z-AUC below -0.8 in all three lines,525.8,"falling, full curve"
COc1cc(N2CCC(N3CCN(C)CC3)CC2)ccc1Nc1ncnc(Nc2ccccc2S(=O)(=O)C(C)C)n1,active = Z-AUC below -0.8 in all three lines,4686,"falling, full curve"
CC1(C)O[C@@H]2C[C@@H]3[C@H]4C[C@@H](F)C5=CC(=O)C=C[C@]5(C)[C@@]4(F)[C@@H](O)C[C@]3(C)[C@]2(C(=O)CO)O1,active = Z-AUC below -0.8 in all three lines,8333,"falling, full curve"
Cc1ncc(-c2ccnc(Nc3ccc(S(C)(=O)=O)cc3)n2)n1C(C)C,active = Z-AUC below -0.8 in all three lines,11770,"falling, partial curve"
S=c1nc[nH]c2nc[nH]c12,active = Z-AUC below -0.8 in all three lines,1321,"falling, full curve"
COc1ccc2c(c1)CN(C)CC2c1ccc(Cl)c(Cl)c1 (stereo not drawn),-,37221,"falling, partial curve, poor fit"
O=C(NCc1ccccc1)[C@H](Cc1ccccc1)NC(=O)[C@@H]1O[C@@H]1C(=O)NCCc1ccc(O)cc1,active = Z-AUC below -0.8 in all three lines,331.7,-

For reference, 3 entries once more:

compound	tested on / at	Potency (nM)	curve as filed
CCNC(=O)CC1N=C(c2ccc(Cl)cc2)c2cc(OC)ccc2-n2c(C)nnc21 (stereo not drawn)	-	23484	falling, partial curve
COc1cc(N2CCC(N3CCN(C)CC3)CC2)ccc1Nc1ncnc(Nc2ccccc2S(=O)(=O)C(C)C)n1	active = Z-AUC below -0.8 in all three lines	4686	falling, full curve
CNNCc1ccc(C(=O)NC(C)C)cc1	active = Z-AUC below -0.8 in all three lines	1663	-